Source: US10653173B2, “Method for masking unpleasant taste” (Analyticon Discovery GmbH, priority 2015, dated 2020)

Experiment: Sensory panel: natural taste of dehydroabietic acid and extracts, sip and spit
Format: in vivo, human
Conditions: pH neutral

For `CC(C)c1ccc2c(c1)CC[C@H]1[C@](C)(C(=O)O)CCC[C@]21C` [dehydroabietic acid], the “Evaluation (descriptive taste)” value (10 μM in 0.5% ethanol) was “neutral”, the “Evaluation (descriptive taste)” value (50 μM in 0.5% ethanol) was “astringent, dry, slightly metallic taste” and the “Evaluation (descriptive taste)” value (3 mg/l, ethanol below 0.5%) was “neutral”. For the same molecule, the “Evaluation (descriptive taste)” value (7.5 mg/l, ethanol below 0.5%) was “neutral”.
